PubChem BioAssay AID686937 | Drosophila RNAi Screening Center | 2013
The screen tested about 23,000 reagents; below is a random part of those with a known target gene and a result. 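Reduced-secretion tags in replicate 1 do not always agree with the z-scores; no criterion for assigning the tags was given.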 Not all columns of the deposit are shown. Not stated in the record: the amount of reagent.

- Screen: 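Knock-downs that reduce output of a secreted reporter enzyme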 (primary screen)
- Cell system: Drosophila S2 cells expressing secreted horseradish peroxidase
- Reagents: long dsRNA against Drosophila genes
- Timing: about 5.5 days (5 days dsRNA, then 12 h reporter induction)
- Challenge: reporter expression induced after 5 days of dsRNA, read 12 h later; inducer not stated
- Detection: 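After 5 days of dsRNA and 12 h of reporter induction, medium peroxidase read by chemiluminescence and scored as per-plate z-score; higher values mean more reporter released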
- Direction: z-score: higher = more reporter secreted into medium

CG32054 [DRSC10684]
- z-score, replicate 1: 0.33

PolQ (DNA polymerase theta) [DRSC17006]
- z-score, replicate 1: -0.45

CG5070 [DRSC19932]
- z-score, replicate 1: 0.16

CG1910 [DRSC15400]
- z-score, replicate 1: 0.18

Acbp1 (Acyl-CoA binding protein 1) [DRSC03093]
- z-score, replicate 1: 0.17

Cyp313a1 (Cytochrome P450 313a1) [DRSC16624]
- z-score, replicate 1: 0.26

Ranbp21 [DRSC19447]
- z-score, replicate 1: -0.01

SmydA-4 (SET and MYND domain containing, arthropod-specific, member 4) [DRSC19390]
- z-score, replicate 1: 0.12

SmydA-4 (SET and MYND domain containing, arthropod-specific, member 4) [DRSC21866]
- z-score, replicate 1: 0.74

Pak3 [DRSC15017]
- z-score, replicate 1: 0.12

CG11983 [DRSC14458]
- z-score, replicate 1: 0.38

CG14947 [DRSC02429]
- z-score, replicate 1: 0.38

CG4733 [DRSC15634]
- z-score, replicate 1: 0.44

angel [DRSC04670]
- z-score, replicate 1: 0.15

angel [DRSC21326]
- z-score, replicate 1: 1.54

CG42445 [DRSC10858]
- z-score, replicate 1: 0.21

CG5167 [DRSC15728]
- z-score, replicate 1: 0.4

CG4455 [DRSC01983]
- z-score, replicate 1: 0.26

CG4455 [DRSC21684]
- z-score, replicate 1: -0.77

CAH7 (Carbonic anhydrase 7) [DRSC15524]
- z-score, replicate 1: 0.18

Pyroxd1 (Pyridine nucleotide-disulfide oxidoreductase domain 1) [DRSC02098]
- z-score, replicate 1: 0.13

CG14861 [DRSC14984]
- z-score, replicate 1: 0.33

CG11396 [DRSC11654]
- z-score, replicate 1: 0.55

RagC-D (Ras-related GTP binding C/D) [DRSC07239]
- z-score, replicate 1: -1.33

Stt3A [DRSC20514]
- z-score, replicate 1: -0.13

dany (distal antenna-young) [DRSC04141]
- z-score, replicate 1: -6.84
- phenotype, replicate 1: reduced secretion

CG3436 [DRSC00605]
- z-score, replicate 1: -0.17

CG10638 [DRSC09762]
- z-score, replicate 1: 0.42

SecCl (Secretory chloride channel) [DRSC10887]
- z-score, replicate 1: -0.12

CG17786 [DRSC15270]
- z-score, replicate 1: 0.5

ppk22 (pickpocket 22) [DRSC22093]
- z-score, replicate 1: -0.19

CG15042 [DRSC19618]
- z-score, replicate 1: -0.22

Larp7 (La related protein 7) [DRSC18798]
- z-score, replicate 1: 0.36

Arpc1 (Actin-related protein 2/3 complex, subunit 1) [DRSC03438]
- z-score, replicate 1: 0.03

Cbp20 (cap binding protein 20) [DRSC16601]
- z-score, replicate 1: 0.19

CG31467 [DRSC16048]
- z-score, replicate 1: -0.01

CG32815 [DRSC18177]
- z-score, replicate 1: 0.37

CG32815 [DRSC18179]
- z-score, replicate 1: -0.13

Plzf (Promyelocytic leukemia zinc finger) [DRSC02994]
- z-score, replicate 1: 0.29

Plap (Phospholipase A2 activator protein) [DRSC00678]
- z-score, replicate 1: 0.29

2 neighbouring reagents from above, for reference:
CG4455 [DRSC01983]
- z-score, replicate 1: 0.26

CG4455 [DRSC21684]
- z-score, replicate 1: -0.77
